No constants are given. Whether binding was seen depends on the method and setting. Some entries that bind do so weakly or less than the wild type. Sequences can lack the tags named with a protein.
Legend:
RGS4^1–11 peptide = biological target: T1, RGS4^1–11 peptide; assay: far-Western, overlay or dot blot; dot blot: peptides in PBS spotted at increasing amounts on PVDF and air-dried; 2 μg/ml purified FLAG-FBXO44^FBA in blocking buffer overnight at 4 °C; detected with anti-FLAG; both purified
T1 sequence (peptide): MCKGLAALPAT

Protein sequences, listed by entry. Tags and fused reporters are not part of them. Lines headed by an entry give the natural chain unless they say otherwise; changes in a name come on top.
UniProt P41220: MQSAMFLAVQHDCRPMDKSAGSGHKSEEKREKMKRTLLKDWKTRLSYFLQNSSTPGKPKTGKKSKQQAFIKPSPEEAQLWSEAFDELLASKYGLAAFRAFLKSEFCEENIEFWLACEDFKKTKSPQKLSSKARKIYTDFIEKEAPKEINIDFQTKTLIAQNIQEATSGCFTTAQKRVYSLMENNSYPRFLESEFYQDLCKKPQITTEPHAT

RGS2^5–16 peptide D12R = biological target: T2, RGS2^5–16 peptide D12R (UniProt P41220); assay: peptide or protein array; custom PEPperPRINT peptide microarray (each position of RGS2^5–16 substituted by every other amino acid; C-terminal truncations); 2 μg/ml purified FLAG-FBXO44^FBA in staining buffer (PBS, 0.005% Tween, pH 7.4, 10% Rockland blocking buffer) overnight at 4 °C; anti-FLAG DyLight800; signal normalised to the original residue; both purified
T2 sequence (peptide): MFLAVQHRCRPM

[1] = biological target: T3, RGS2^5–16 peptide, Cys^13 to Lys (UniProt P41220); assay: as above
T3 sequence (peptide): MFLAVQHDKRPM

[2] = biological target: T4, RGS2^5–16 peptide, Asp^12 to Tyr (UniProt P41220); assay: as above
T4 sequence (peptide): MFLAVQHYCRPM

[3] = biological target: T5, RGS2^5–16 peptide, Asp^12 to Trp (UniProt P41220); assay: as above
T5 sequence (peptide): MFLAVQHWCRPM

RGS2^5–16 peptide P15G = biological target: T6, RGS2^5–16 peptide P15G (UniProt P41220); assay: as above
T6 sequence (peptide): MFLAVQHDCRGM

RGS2^5–16 peptide P15R = biological target: T7, RGS2^5–16 peptide P15R (UniProt P41220); assay: as above
T7 sequence (peptide): MFLAVQHDCRRM

[4] = biological target: T8, RGS2^5–16 peptide, Asp^12 to Thr (UniProt P41220); assay: as above
T8 sequence (peptide): MFLAVQHTCRPM

binding (RGS2^5–16 peptide D12R): binds
binding [1]: binds
binding [2]: binds
binding [3]: binds
binding (RGS2^5–16 peptide P15G): binds
binding (RGS2^5–16 peptide P15R): binds
binding [4]: binds
B1: FLAG-tagged FBXO44 FBA domain (FBXO44^FBA) (domain or fragment, UniProt Q9H4M3-1 71-252)
chain: FYFLRSLHRNLLHNPCAEEGFEFWSLDVNGGDEWKVEDLSRDQRKEFPNDQVKKYFVTSYYTCLKSQVVDLKAEGYWEELMDTTRPDIEVKDWFAARPDCGSKYQLCVQLLSSAHAPLGTFQPDPATIQQKSDAKWREVSHTFSNYPPGVRYIWFQHGGVDTHYWAGWYGPRVTNSSITIGP
binding (RGS4^1–11 peptide): no binding (tested: 2 μg/ml FLAG-FBXO44^FBA)
